Values quoted from earlier work as cited in US20200377501A1, “DEGRADERS OF EGFR AND METHODS OF USE THEREOF” (DANA-FARBER CANCER INSTITUTE, INC., priority 2018, published 2020).
At least one structure is not confirmed: it was looked up by name or label, or the drawing left a doubt.

Test system: NSCLC resistant to gefitinib or erlotinib
Details: patients with NSCLC resistant to gefitinib or erlotinib; cited from earlier work

## CN(C)C/C=C/C(=O)Nc1cc2c(Nc3ccc(F)c(Cl)c3)ncnc2cc1O[C@H]1CCOC1 [Afatinib]
  RR: < 10%
